According to PubChem BioAssay AID2685 (National Center for Advancing Translational Sciences (NCATS), 2010):
This is one part of the list. These are further read-outs of the screen, such as a control signal, another cell line or another target. No call is given for them. Compounds called inactive in the main read-out are mostly missing here. Words in brackets tell the shape of the fitted curve; partial curves, single points and poor fits give uncertain potencies.

Experiment: qHTS Assay for Lipid Storage Modulators in Drosophila S3 Cells;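 as to cell number change: cells counted by Cell Tracker Red CMTPX staining in the red channel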
Conditions: BODIPY lipid droplet fluorescence, 18-24 h; for cell number change: measured here: cell count max response, cells fed with added oleic acid
How it was run: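 Laser-scanning cytometry quantifies lipid droplet accumulation (500–530 nm total intensity; droplet/cell object ratio) in oleic acid-fed (400 uM added) Drosophila S3 cells treated with a concentration series. 20 uM Triacsin C defined 100% inhibition.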

[1] = measured here: lipid fluorescence (Fed channel) AC50, cells fed with added oleic acid
[2] = measured here: cell number channel AC50, cells fed with added oleic acid

Row | SMILES | cell number change [%] | AC50 [1] | AC50 [2]
1 | Cc1nc(NC(=O)CSc2nc3cccnc3n2C2CCCCC2)sc1C | -0.158 |  | 
2 | COc1ccc(NC(=O)C2CC(c3cccc(Br)c3)=NO2)cc1OC (stereo not drawn) | -9.38 | 6.51 µM [rising, single point] | 
3 | CC(C)Oc1ccccc1C1(c2ccccc2)NC(=O)NC1=O (stereo not drawn) | 15.5 | 3.66 µM [rising, full curve] | 
4 | COc1cc([C@@H]2CC=C(C(=O)O)CN2S(=O)(=O)c2ccc(C)cc2)cc(OC)c1OC | 0.765 | 0.58 µM [rising, single point] | 
5 | Cc1cc(C=O)c(C)n1-c1ccc(Oc2ccc([N+](=O)[O-])cn2)cc1 | 7.56 | 0.731 µM [rising, single point] | 
6 | COC(=O)CC1COc2ccccc2N1C(=O)c1cccc(Cl)c1 (stereo not drawn) | -10.6 | 0.0231 µM [falling, full curve, poor fit] | 
7 | O=C(c1ccc(Br)o1)N1CCc2ccccc21 | 24.9 | 25.9 µM [rising, single point] | 
8 | C/C(=C1\SC(N2CCOCC2)=NC1=O)c1ccccc1 | 11 | 2.06 µM [rising, single point] | 
9 | Cc1ccc(CN2CCC(n3nccc3NC(=O)c3ccccc3C)CC2)o1 | -29.2 | 6.51 µM [falling, single point] | 
10 | Cc1nnc(SCc2nc3sc4c(c3c(=O)[nH]2)CCCC4)n(N)c1=O | -59.3 | 29.1 µM [falling, single point] | 29.1 µM [falling, single point]
11 | O=C(Oc1cccc(C(=S)N2CCCCC2)c1)c1ccccc1 | 17.9 | 0.517 µM [rising, single point] | 
12 | COc1ccc(Cl)cc1NC(=O)CCN1C(=O)C2C3C=CC(C4CC34)C2C1=O (stereo not drawn) | -19.8 | 29.1 µM [rising, single point] | 
13 | COc1ccc(N(C(=O)CNC(=O)c2ccco2)C(C(=O)NC2CCCCC2)c2ccco2)cc1 (stereo not drawn) | 0.439 | 6.51 µM [rising, single point] | 
14 | Cc1ccc2c(c1)N(CC(=O)NCC1CCCO1)C(=O)C(C(C)C)O2 (stereo not drawn) | 21.8 |  | 
15 | Cc1oc2ccc(O)cc2c1C(=O)c1ccc(Cl)cc1 | -22.8 | 0.731 µM [falling, partial curve, poor fit] | 
16 | CC(C)CCNC(=O)C1c2ccccc2Oc2ccccc21 | -6.04 |  | 
17 | COC(=O)c1[nH]c2cccc(OC)c2c1NC(=O)CN1CCOCC1 | 1.47 |  | 
18 | O=C(NCc1cccs1)C(=O)NCC1OCCCN1S(=O)(=O)c1ccccc1 (stereo not drawn) | 117 |  | 29.1 µM [rising, single point]
19 | NS(=O)(=O)c1ccc(N2N=C(c3ccccc3)CC2c2ccc(F)cc2)cc1 (stereo not drawn) | 28.5 | 6.51 µM [rising, single point] | 
20 | Cc1cc(NC(=O)CSCCc2ccncc2)no1 | 26 | 14.6 µM [rising, single point] | 
21 | COc1ccccc1NC(=O)CN1CCN(CC(=O)Nc2ccc(OC)c(OC)c2)CC1 | 36.9 |  | 23.1 µM [rising, single point]

Gathered by group, those above containing sulfur
Row | SMILES | cell number change [%] | AC50 [1] | AC50 [2]
1 | Cc1nc(NC(=O)CSc2nc3cccnc3n2C2CCCCC2)sc1C | -0.158 |  | 
4 | COc1cc([C@@H]2CC=C(C(=O)O)CN2S(=O)(=O)c2ccc(C)cc2)cc(OC)c1OC | 0.765 | 0.58 µM [rising, single point] | 
8 | C/C(=C1\SC(N2CCOCC2)=NC1=O)c1ccccc1 | 11 | 2.06 µM [rising, single point] | 
10 | Cc1nnc(SCc2nc3sc4c(c3c(=O)[nH]2)CCCC4)n(N)c1=O | -59.3 | 29.1 µM [falling, single point] | 29.1 µM [falling, single point]
11 | O=C(Oc1cccc(C(=S)N2CCCCC2)c1)c1ccccc1 | 17.9 | 0.517 µM [rising, single point] | 
18 | O=C(NCc1cccs1)C(=O)NCC1OCCCN1S(=O)(=O)c1ccccc1 (stereo not drawn) | 117 |  | 29.1 µM [rising, single point]
19 | NS(=O)(=O)c1ccc(N2N=C(c3ccccc3)CC2c2ccc(F)cc2)cc1 (stereo not drawn) | 28.5 | 6.51 µM [rising, single point] | 
20 | Cc1cc(NC(=O)CSCCc2ccncc2)no1 | 26 | 14.6 µM [rising, single point] | 

Rewritten tab-delimited: entries from further up.
Row	SMILES	cell number change [%]	AC50 [1]	AC50 [2]
8	C/C(=C1\SC(N2CCOCC2)=NC1=O)c1ccccc1	11	2.06 µM [rising, single point]	
9	Cc1ccc(CN2CCC(n3nccc3NC(=O)c3ccccc3C)CC2)o1	-29.2	6.51 µM [falling, single point]	

Additional records follow:

Row | SMILES | cell number change [%] | AC50 [1] | AC50 [2]
22 | CN1CCN(CCCN(Cc2cccs2)C(=S)Nc2ccc(Cl)cc2)CC1 |  |  | 0.731 µM [falling, single point]
23 | Cc1ccc(OCC(=O)NN=C2c3ccccc3-c3ccccc32)cc1 | 15.5 | 13 µM [rising, partial curve, poor fit] | 
24 | Cc1cccc(C)c1NC(=O)COC(=O)CCc1c[nH]c2ccccc12 | -7.9 | 0.206 µM [rising, full curve] | 
25 | COc1ccc(CCNc2nnc(C)c(=O)[nH]2)cc1OC |  | 2.91 µM [falling, single point] | 0.00517 µM [falling, full curve, poor fit]
26 | CC1(C)CC(=O)C=C(N=CC2=C(O)CC(C)(C)CC2=O)C1 | -40.8 | 6.51 µM [falling, single point] | 0.231 µM [falling, full curve]
27 | COC(=O)C1CC(=O)N(Cc2ccccc2)C1 (stereo not drawn) | -37.2 |  | 6.51 µM [falling, partial curve]
28 | COC(=O)C1=C(C)N(Cc2ccccc2)C(=NCCCCO)N[C@H]1c1ccccc1 | 2.51 |  | 
29 | CC(=O)c1c(C)[nH]c(C(=O)N2CCN(c3ccc(F)cc3)CC2)c1C | -1.86 |  | 
30 | CCCCNC(=S)NNC(=O)CCn1nc(C)c(Br)c1C | -1.49 |  | 6.51 µM [rising, single point]
31 | CC1(C)CC(=O)C=C(c2ccc(Oc3ccccc3)cc2)C1 | -36.6 |  | 0.731 µM [falling, full curve]
32 | CCOc1ccc(Cl)cc1S(=O)(=O)n1cnc2ccccc21 | 3.71 | 29.1 µM [rising, single point] | 
33 | COc1ccc(NC(=O)C2CCN(c3ncnc4c3nc3n4CCCCC3)CC2)cc1Cl | 5.34 |  | 
34 | CCC(=O)Nc1ccc(Cl)c(NC(=O)c2ccc([N+](=O)[O-])cc2)c1 | 5.87 | 0.231 µM [falling, full curve, poor fit] | 
35 | CCN(CC)S(=O)(=O)c1ccc(N2CCCC2)c(NS(=O)(=O)c2ccccc2)c1 | -41.9 | 18.4 µM [falling, partial curve] | 0.92 µM [falling, full curve]
36 | CCCNC(=O)CSc1nc(COc2ccccc2)nc2ccccc12 | 15.4 |  | 
37 | O=C(Nc1ccncc1)c1cccc(S(=O)(=O)N2CCN(c3ccc(F)cc3)CC2)c1 | -25.5 |  | 
38 | COc1ccc(NC(=O)CN(C)CC(=O)NCC(=O)Nc2ccc(F)cc2)cc1 | -15.5 | 4.11 µM [rising, partial curve, poor fit] | 
39 | Cc1ccc(S(=O)(=O)N(C)C)cc1NC(=S)NNC(=O)C(N)=O | 26 |  | 
40 | O=C(COC(=O)CCc1ccc(S(=O)(=O)N2CCOCC2)cc1)Nc1ncc(C(F)(F)F)cc1Cl | 8.12 | 16.4 µM [falling, partial curve] | 
41 | CCCCC(=O)NC(NC(=O)CCCC)c1ccc(OCC(C)C)c(OC)c1 | 1.53 | 0.0731 µM [rising, full curve, poor fit] | 
42 | Nc1c(Cl)cc2c(c1Oc1ccccc1)C(=O)c1ccccc1C2=O |  | 0.291 µM [rising, partial curve, poor fit] | 0.461 µM [rising, full curve]

Row | SMILES | cell number change [%] | AC50 [1] | AC50 [2]
43 | N#CC1=C(S)N(c2ccccc2)C(c2ccc(-c3ccccc3Cl)o2)NC1=O (stereo not drawn) | -41.7 |  | 5.8 µM [falling, full curve]
44 | COc1ccccc1NC(=O)Nc1ccc2c(c1)nnn2C |  | 0.411 µM [rising, full curve] | 0.0731 µM [rising, full curve, poor fit]
45 | CC1CCN(C(=O)CSc2nncn2C)CC1 | -13 | 0.13 µM [rising, full curve, poor fit] | 
46 | O=C1NC(c2ccc(Br)cc2)Nc2ccccc21 (stereo not drawn) | 10.6 |  | 
47 | CCOc1ccc(N(CC(=O)Nc2ccc(C)c(C)c2)S(=O)(=O)c2c(C)noc2C)cc1 | -8.62 | 29.1 µM [falling, single point] | 
48 | CC1(C)N([O-])c2cc([N+](=O)[O-])ccc2[N+]1=O | -33 | 11.6 µM [falling, partial curve] | 7.31 µM [falling, partial curve]
49 | CSc1ccc(NC(=O)Nc2ccc(C(=O)NCC(=O)O)cc2)cc1 | -14.9 | 6.51 µM [falling, single point] | 
50 | O=C1NC2(CCCC2)N=C1c1ccc(F)cc1 | -59.5 |  | 29.1 µM [falling, partial curve]
51 | CCN(CC)C(=O)COc1ccc2oc(C)c(C(=O)OC)c2c1 | 2.33 | 0.651 µM [rising, full curve, poor fit] | 
52 | CCOC(=O)C1CCN(S(=O)(=O)c2cc3c(cc2C)NC(=O)CO3)CC1 | -2.59 | 0.00517 µM [falling, full curve, poor fit] | 
53 | CCCCN1C(=O)c2ccccc2C1C(=O)NC1CCCC1 (stereo not drawn) | -11.5 | 0.058 µM [falling, full curve] | 
54 | Cc1cc(NC(=O)CSc2ccc3nnc(CCNS(=O)(=O)c4ccccc4)n3n2)no1 | 4.56 | 4.11 µM [falling, single point] | 4.11 µM [falling, single point]
55 | Cc1cccc(NC(=O)c2ccc(OC3CSC3)cc2)c1 | -0.157 |  | 
56 | Cc1cc(Cl)ccc1NC(=O)CSc1nnc(Cc2cccs2)n1Cc1ccco1 |  | 0.58 µM [rising, partial curve] | 0.82 µM [rising, partial curve]
57 | CCNC(=O)/C(=C/c1cccc([N+](=O)[O-])c1)NC(=O)c1ccc(C)cc1 | 6.81 | 0.146 µM [rising, single point] | 
58 | COc1ccc(CNC(=O)CS(=O)(=O)Cc2nc(-c3ccc(OC)cc3)oc2C)cc1 | 53.3 |  | 32.6 µM [rising, single point]
59 | CC(C)CNC(=O)C1CCN(c2ccc(S(=O)(=O)N3CCOCC3)cc2)CC1 | -3.4 | 0.0651 µM [falling, full curve, poor fit] | 
60 | O=C(Nc1ccc(S(=O)(=O)N2CCCCC2)cc1)c1cccnc1Cl | 105 |  | 
61 | CC1(C)Cc2nc3sc(C(N)=O)c(N)c3cc2CO1 | 18.9 |  | 0.00461 µM [rising, full curve, poor fit]
62 | O=C(O)c1ccccc1S(=O)(=O)NCC(O)COC1CCCCC1 (stereo not drawn) | 7.64 | 5.17 µM [falling, partial curve, poor fit] | 
63 | CC(=O)Nc1ccc(NC(=O)c2ccc3c(c2)C(=O)N(c2ccccc2C)C3=O)cc1 | 42.3 | 8.2 µM [rising, partial curve] | 18.4 µM [rising, single point]
